Reference: patent US11318167B2, “Isolation of fusion-competent myoblasts and therapeutic applications thereof related to muscular dystrophy” (THE JOHNS HOPKINS UNIVERSITY, priority 2015, dated 2022)
For at least one compound, name, drawing or mass did not settle the structure.

System: MESOGENIN1::eGFP reporter human embryonic stem cell (hESC) line
Assay: MESOGENIN1::eGFP reporter hESC line, pre-somite mesoderm induction (day 4)
Assay type: cell-based
Source text: The present invention was created through a number of discoveries. First, to harness the potential of hPSCs, a protocol to direct hPSCs into the skeletal muscle lineage was developed. As the somite is an intermediate stage between hPSCs and myogenic progenitor cells (Bentzinger et al, 2012; Dequeant and Pourquie, 2008) (FIG. 6A), a MESOGENIN1::eGFP reporter human embryonic stem cell (hESC) line was generated with the CRISPR/Cas9 system (Mali et al, 2013) (FIG. 6B-6D), because MESOGENIN1 is a genetic marker for the pre-somite mesoderm fate (Fior et al., 2012). […] For myogenic differentiation, hESCs/hiPSCs were rendered to single cells using Accutase® solution, and plated on gelatin for 10 minutes to remove MEFs. Non-adherent cells were collected and plated on Geltrex™ treated dishes, at a density of 1.5×10^5 cells per well of a 24-well plate, in the presence of MEF-conditioned N2 media containing 10 ng/ml of FGF-2 and 10 μM of Y-27632 (Cayman Chemical Co.) (day 0). The N2 medium, described in detail, contains DMEM/F12 powder, glucose, sodium bicarbonate, insulin, putrescine, progesterone, sodium selenite, and transferrin. From the next day (day 1), media was changed at every other day. […]

SMILES: O=c1cc(N2CCOCC2)oc2c(-c3ccccc3)cccc12 [LY294002]
- MESOGENIN1::eGFP expression, recapitulation of the effect of CHIR99021 (with WNT1+WNT3a+WNT7a): partially recapitulates the effect of CHIR99021
- MESOGENIN1::eGFP expression, recapitulation of the effect of CHIR99021 (with WNT3a): partially recapitulates the effect of CHIR99021
